Test results as given in paper PMC9839851.

Protein sequences, listed by entry. Tags and fused reporters are not part of them. Lines headed by an entry give the natural chain unless they say otherwise; changes in a name come on top.
UniProt Q9WTL8: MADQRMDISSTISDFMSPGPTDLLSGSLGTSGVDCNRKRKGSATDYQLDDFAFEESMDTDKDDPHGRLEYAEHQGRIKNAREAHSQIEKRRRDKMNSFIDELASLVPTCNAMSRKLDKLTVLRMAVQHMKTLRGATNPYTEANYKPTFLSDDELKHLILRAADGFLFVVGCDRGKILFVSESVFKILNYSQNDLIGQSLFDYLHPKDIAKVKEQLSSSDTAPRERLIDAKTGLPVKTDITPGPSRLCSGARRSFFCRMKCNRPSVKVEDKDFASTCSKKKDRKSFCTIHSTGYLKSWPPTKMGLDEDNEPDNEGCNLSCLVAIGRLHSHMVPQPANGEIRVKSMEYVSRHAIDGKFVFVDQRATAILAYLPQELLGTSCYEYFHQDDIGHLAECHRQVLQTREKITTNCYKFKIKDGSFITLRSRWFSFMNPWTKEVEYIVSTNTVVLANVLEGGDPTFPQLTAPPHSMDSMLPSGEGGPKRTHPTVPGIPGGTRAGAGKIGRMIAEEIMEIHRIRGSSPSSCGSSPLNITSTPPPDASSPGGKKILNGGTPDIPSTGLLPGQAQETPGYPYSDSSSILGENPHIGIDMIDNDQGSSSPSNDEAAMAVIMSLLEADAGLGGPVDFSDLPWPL
UniProt P03953: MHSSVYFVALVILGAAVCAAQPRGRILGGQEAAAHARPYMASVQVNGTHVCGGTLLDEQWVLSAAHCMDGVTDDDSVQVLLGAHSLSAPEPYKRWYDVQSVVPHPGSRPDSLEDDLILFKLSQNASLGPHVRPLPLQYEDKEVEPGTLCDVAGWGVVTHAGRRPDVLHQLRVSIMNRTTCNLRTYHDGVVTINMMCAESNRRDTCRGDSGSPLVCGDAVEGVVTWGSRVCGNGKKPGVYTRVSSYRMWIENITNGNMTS

Molecular target: BMAL1 (mouse (endogenous in eWAT)) (UniProt Q9WTL8)
Test: co-IP; mouse eWAT homogenised in IP buffer (1x TBS, 1% triton, 10% glycerol); anti-BMAL1 immunoprecipitation overnight at 4 °C; Western blot for adipsin

binding: binds
Substance: adipsin (from UniProt P03953)

Results are given in words; binding and its absence hold for the method and conditions named. In cells and extracts the contact can be indirect. Binding calls can cover weak binding; strength is not graded here.
